The text below walks through data of paper PMC12393150.

These are yes or no findings as the source states them, for the method shown. Binding seen in cells or lysates may run through a third protein. For part of these data: Binding calls can cover weak binding; strength is not graded here.

Common to all, as to assay: split reporter; BIFC in Nicotiana benthamiana leaf cells: SCC (SCFP3A C155)-SPF30.1 co-expressed with partner-SCN (SCFP3A N173) by infiltration of mixed Agrobacterium GV3101 cultures; cyan fluorescence read by confocal microscopy after two days
Experiment [1] addresses T1, U1A (Arabidopsis U1 snRNP protein A) (Arabidopsis thaliana) (UniProt Q39244).
T1 sequence: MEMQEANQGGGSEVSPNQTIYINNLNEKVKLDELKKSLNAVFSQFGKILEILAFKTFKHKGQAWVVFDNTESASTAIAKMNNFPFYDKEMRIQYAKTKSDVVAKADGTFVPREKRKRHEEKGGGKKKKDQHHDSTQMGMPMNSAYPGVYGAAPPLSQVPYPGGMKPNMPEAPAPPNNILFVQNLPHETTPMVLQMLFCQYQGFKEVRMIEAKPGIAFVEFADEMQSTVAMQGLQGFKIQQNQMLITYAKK

For experiment [2], the target named is T2, U1-70K (Arabidopsis U1 snRNP 70K protein) (Arabidopsis thaliana) (UniProt Q42404).
T2 sequence: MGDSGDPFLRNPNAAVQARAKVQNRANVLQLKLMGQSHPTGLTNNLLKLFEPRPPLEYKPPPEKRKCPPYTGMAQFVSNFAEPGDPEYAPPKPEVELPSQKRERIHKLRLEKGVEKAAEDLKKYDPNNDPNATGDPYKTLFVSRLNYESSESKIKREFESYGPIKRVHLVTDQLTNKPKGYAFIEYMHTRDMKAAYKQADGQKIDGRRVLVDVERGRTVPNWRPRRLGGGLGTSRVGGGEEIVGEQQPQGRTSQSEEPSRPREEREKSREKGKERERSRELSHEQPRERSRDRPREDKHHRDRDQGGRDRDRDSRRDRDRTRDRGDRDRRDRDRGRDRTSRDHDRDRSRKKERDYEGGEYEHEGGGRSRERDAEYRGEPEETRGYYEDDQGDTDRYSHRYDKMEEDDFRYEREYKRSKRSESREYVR

Experiment [3] has as its target T3, U2AF65a (Arabidopsis U2 snRNP auxiliary factor large subunit a) (Arabidopsis thaliana) (UniProt O23212).
T3 sequence: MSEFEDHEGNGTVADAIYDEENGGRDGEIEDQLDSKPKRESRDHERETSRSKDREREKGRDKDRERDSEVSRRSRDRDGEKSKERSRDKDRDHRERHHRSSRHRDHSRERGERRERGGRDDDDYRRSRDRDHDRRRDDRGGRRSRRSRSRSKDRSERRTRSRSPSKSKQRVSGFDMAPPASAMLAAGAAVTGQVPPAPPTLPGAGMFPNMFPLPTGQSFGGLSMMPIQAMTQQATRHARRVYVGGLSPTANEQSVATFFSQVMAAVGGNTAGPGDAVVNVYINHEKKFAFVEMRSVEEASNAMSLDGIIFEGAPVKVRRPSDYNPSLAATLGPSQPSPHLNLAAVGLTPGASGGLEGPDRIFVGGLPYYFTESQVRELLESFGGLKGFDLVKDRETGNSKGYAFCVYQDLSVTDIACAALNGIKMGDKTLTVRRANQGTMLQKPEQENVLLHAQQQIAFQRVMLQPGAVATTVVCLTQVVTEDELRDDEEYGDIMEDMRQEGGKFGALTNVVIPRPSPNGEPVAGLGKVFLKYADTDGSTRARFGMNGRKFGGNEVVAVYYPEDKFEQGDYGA

In experiment [4] the target is T4, U2AF35b (Arabidopsis U2 snRNP auxiliary factor small subunit b) (Arabidopsis thaliana) (UniProt Q9FMY5).
T4 sequence: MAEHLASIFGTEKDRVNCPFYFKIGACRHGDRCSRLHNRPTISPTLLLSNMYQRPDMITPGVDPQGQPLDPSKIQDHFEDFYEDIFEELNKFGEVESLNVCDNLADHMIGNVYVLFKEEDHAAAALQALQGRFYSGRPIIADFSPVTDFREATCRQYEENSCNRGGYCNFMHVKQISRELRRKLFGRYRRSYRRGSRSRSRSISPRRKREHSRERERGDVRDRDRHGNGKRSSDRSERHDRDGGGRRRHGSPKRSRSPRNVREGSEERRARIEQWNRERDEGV

Experiment [5] has as its target T5, RNA-DIRECTED DNA …ON 16 (RDM16), the Arabidopsis homolog of hPrp3 (Arabidopsis thaliana) (UniProt Q9C7E7).
T5 sequence: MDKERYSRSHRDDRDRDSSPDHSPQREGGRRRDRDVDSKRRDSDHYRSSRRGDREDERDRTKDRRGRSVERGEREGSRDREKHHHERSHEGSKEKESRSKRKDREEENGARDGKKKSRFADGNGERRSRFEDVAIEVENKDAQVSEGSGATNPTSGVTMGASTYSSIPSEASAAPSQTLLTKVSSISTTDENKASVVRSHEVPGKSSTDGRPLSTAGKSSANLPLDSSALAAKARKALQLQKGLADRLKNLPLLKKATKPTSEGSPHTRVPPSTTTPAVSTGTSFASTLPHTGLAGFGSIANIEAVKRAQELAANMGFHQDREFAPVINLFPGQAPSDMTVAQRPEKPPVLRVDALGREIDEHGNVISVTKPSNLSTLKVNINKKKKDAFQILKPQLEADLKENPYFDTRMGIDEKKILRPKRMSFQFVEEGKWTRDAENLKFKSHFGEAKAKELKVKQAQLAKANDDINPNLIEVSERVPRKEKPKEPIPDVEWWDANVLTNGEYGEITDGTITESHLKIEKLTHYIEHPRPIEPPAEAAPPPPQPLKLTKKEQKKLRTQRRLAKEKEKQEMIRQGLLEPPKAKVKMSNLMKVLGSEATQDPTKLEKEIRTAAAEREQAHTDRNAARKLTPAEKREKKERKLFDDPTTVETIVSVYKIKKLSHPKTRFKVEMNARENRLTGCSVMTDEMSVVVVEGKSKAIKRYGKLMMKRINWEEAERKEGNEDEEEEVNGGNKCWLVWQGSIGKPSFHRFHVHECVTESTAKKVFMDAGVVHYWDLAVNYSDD

Experiment [6] addresses T6, U2A (Arabidopsis U2 snRNP protein A') (Arabidopsis thaliana) (UniProt P43333).
T6 sequence: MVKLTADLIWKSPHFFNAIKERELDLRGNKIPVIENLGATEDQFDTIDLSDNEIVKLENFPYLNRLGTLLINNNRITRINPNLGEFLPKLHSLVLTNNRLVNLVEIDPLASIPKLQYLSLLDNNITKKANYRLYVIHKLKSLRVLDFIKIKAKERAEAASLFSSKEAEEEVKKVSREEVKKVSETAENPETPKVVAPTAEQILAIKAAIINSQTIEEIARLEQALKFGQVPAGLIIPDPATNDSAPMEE

For “Splicing factor 30, isoform SPF30.1 (Arabidopsis)”, the binding result is reported as “binds” in experiment [1]; “no binding” in experiment [2]; “binds” in experiment [3]; “binds” in experiment [4]; “binds” in experiment [5]; “no binding” in experiment [6].
